According to patent US6573364:
No constants are given. Whether binding was seen depends on the method and setting. Some entries that bind do so weakly or less than the wild type. Tags and fused reporters may be left off the sequences shown.

Amino acid sequences for entries named in this document (tags omitted). A change or cut given only in a name is not applied to a line headed by its entry.
UniProt P04386: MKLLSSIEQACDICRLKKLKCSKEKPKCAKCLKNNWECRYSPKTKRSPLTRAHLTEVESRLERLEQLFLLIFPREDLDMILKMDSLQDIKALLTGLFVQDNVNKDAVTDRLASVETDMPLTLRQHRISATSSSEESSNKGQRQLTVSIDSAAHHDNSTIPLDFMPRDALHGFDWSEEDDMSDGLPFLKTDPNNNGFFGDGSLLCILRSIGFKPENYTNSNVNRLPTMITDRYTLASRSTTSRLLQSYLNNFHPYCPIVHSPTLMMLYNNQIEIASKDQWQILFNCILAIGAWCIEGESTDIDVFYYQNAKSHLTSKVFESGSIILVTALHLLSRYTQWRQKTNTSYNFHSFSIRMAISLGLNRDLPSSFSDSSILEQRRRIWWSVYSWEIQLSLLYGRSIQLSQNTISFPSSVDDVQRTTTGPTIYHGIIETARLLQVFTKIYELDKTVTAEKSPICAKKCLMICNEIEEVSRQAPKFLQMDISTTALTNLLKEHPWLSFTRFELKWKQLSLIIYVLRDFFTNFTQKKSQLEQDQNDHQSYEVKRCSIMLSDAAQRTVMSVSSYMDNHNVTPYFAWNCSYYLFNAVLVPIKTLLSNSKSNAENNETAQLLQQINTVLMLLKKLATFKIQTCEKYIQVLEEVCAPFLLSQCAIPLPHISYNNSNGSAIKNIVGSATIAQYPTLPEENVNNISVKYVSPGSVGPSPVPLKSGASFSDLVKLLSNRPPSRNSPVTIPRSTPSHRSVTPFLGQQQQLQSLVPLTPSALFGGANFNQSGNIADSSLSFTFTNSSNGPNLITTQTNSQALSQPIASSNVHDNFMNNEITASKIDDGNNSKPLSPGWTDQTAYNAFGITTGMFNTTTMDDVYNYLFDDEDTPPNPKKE

Assays:
[1] = molecular target: T1, HPS protein fragment 210-1292 fused to the Gal4 activator domain (reverse screen) (yeast; human) (UniProt Q92902); assay: yeast two-hybrid, reverse screen; listed under the sequences interacting with the HPS protein domain 210-1292
T1 sequence: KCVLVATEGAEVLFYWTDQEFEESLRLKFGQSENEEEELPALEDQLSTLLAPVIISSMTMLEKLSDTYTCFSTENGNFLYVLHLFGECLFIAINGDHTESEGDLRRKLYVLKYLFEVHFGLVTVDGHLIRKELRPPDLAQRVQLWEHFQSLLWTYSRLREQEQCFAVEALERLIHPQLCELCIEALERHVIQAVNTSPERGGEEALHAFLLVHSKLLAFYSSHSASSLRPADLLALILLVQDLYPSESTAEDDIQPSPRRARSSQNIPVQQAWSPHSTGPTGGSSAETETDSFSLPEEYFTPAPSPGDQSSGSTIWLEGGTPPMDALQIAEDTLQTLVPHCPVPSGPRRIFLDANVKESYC

[2] = molecular target: T1, HPS protein fragment 210-1292 fused to the Gal4 activator domain (reverse screen) (yeast; human); assay: yeast two-hybrid, reverse screen; listed in Table I as an interaction with HPS 210-1292, 1 isolate
[3] = molecular target: T1, HPS protein fragment 210-1292 fused to the Gal4 activator domain (reverse screen) (yeast; human); assay: yeast two-hybrid, reverse screen; listed in Table I as an interaction with HPS 210-1292, 2 isolates
[4] = molecular target: T1, HPS protein fragment 210-1292 fused to the Gal4 activator domain (reverse screen) (yeast; human); assay: yeast two-hybrid mating, recapitulation of the interactions identified in the reverse screens

Measured: binding

DiGeorge Syndrome (DGS)-I protein, prey inserts starting at nucleotides 16 and 27 of GenBank L77566, fused to the Gal4 DNA binding domain (from UniProt P04386 1-147; Q96DF8 1-476)
binds: all assays above
